# Measured values reported in the supplement of paper PMC12067093, “Discovery and optimisation of a covalent ligand for TRIM25 and its application to targeted protein ubiquitination” (Chemical Science, 2025).
# The list shows a part of the results.
# Compound: Cc1cc(ccc1-c1ccccc1)C(=O)N1CCCN(CC1)C(=O)CCl [compound 10]
# Assay: probe-labelled cysteine peptide fold change vs DMSO (competition) (log2 fold change); higher = less target engagement (more negative = stronger competition)
# Details: 10 µM; THP-1; incubation time: 4 h
# 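Note: competitive profiling in live THP-1 cells: cysteine peptides tagged with an iodoacetamide desthiobiotin (IA-DTB) probe, intensity after compound treatment relative to DMSO-treated cells.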
row,Target,probe-labelled cysteine peptide fold change
1,GMPS_P49915_554_MCHNVNR (UniProt P49915),-0.0487
2,GPATCH4_Q5T3I0_152_ILTDEMLLQACEGR (UniProt Q5T3I0),0.13
3,GLRX_P35754_26_VVVFIKPTCPYCR (UniProt P35754),-1.05
4,GNAI1_P63096_66_IIHEAGYSEEECK (UniProt P63096),-0.0126
5,GNS_P15586_518_LMMLQSCSGPTCR (UniProt P15586),0.171
6,GLOD4_Q9HC38_269_ATVQVVILADPDGHEICFVGDEAFR (UniProt Q9HC38),0.114
7,GNB2_P62879_25_ACGDSTLTQITAGLDPVGR (UniProt P62879),-0.0156
8,GLRX2_Q9NS18_153_LLPLVHQCYLK (UniProt Q9NS18),-0.235
9,GOT2_P00505_212_IPEQSVLLLHACAHNPTGVDPRPEQWK (UniProt P00505),0.243
10,GMIP_Q9P107_521_ECEAFMVSGTECEECFLTCHK (UniProt Q9P107),-0.0581
11,GLG1_Q92896_639_CLIDLGK (UniProt Q92896),-0.208
12,GNAI2_P04899_140_RLWADHGVQACFGR (UniProt P04899),-0.129
13,GOLPH3_Q9H4A6_280_QLLDLDPEVECLK (UniProt Q9H4A6),-0.195
14,GNL3L_Q9NVN8_490_IGDLTGYCTNPNR (UniProt Q9NVN8),0.0305
15,GNB1_P62873_148+149_ELAGHTGYLSCCR (UniProt P62873),-0.185
16,GNL3_Q9BVP2_131_KLYCQELK (UniProt Q9BVP2),-0.147
17,GPAA1_O43292_266_GGLLCTLQGK (UniProt O43292),-0.168
18,GPT2_Q8TD30_265_VLCIINPGNPTGQVQSR (UniProt Q8TD30),0.0968
19,GMPS_P49915_489_ACTTEEDQEK (UniProt P49915),0.00335

row,Target,probe-labelled cysteine peptide fold change
1,GNPTG_Q9UJJ9_245_TPEENEPTQLEGGPDSLGFETLENCR (UniProt Q9UJJ9),-0.282
2,GPS1_Q13098_175_RGHDDLGDHYLDCGDLSNALK (UniProt Q13098),-0.0362
3,GNAI3_P08754_139_DGGVQACFSR (UniProt P08754),-0.0878
4,GOPC_Q9HD26_408_LYLDELEGGGNPGASCK (UniProt Q9HD26),-0.33
5,GPATCH8_Q9UKJ3_508_VSETQMCESNSSK (UniProt Q9UKJ3),-0.201
6,GMPPA_Q96IJ6_335_LRESIVLHGATLQEHTCVLHSIVGWGSTVGR (UniProt Q96IJ6),0.102
7,GLG1_Q92896_190_ECADEPVGK (UniProt Q92896),-0.0619
8,GMPPA_Q96IJ6_154_TQSLNYGCIVENPQTHEVLHYVEK (UniProt Q96IJ6),0.0262
9,GNB1_P62873_149_ELAGHTGYLSCCR (UniProt P62873),0.0749
10,GLCCI1_Q86VQ1_151_SPGSPVCR (UniProt Q86VQ1),0.0854
11,GPD2_P43304_546_EYACTAVDMISR (UniProt P43304),0.0683
12,GLB1_P16278_426_TTLPQDCSNPAPLSSPLNGVHDR (UniProt P16278),-0.115
13,GNL1_P36915_517_LSLCFHPPGYSEQK (UniProt P36915),0.117
14,GLA_P06280_56_FMCNLDCQEEPDSCISEK (UniProt P06280),0.07
15,GLIPR1_P48060_192_GATCSACPNNDK (UniProt P48060),0.087
16,GNAI2_P04899_255_LFDSICNNK (UniProt P04899),0.204
17,GMPS_P49915_137_EDGVFNISVDNTCSLFR (UniProt P49915),0.0778
18,GPHN_Q9NQX3_284_LSTASCPTPK (UniProt Q9NQX3),-0.406
19,GNB1_P62873_271_ADQELMTYSHDNIICGITSVSFSK (UniProt P62873),0.196

# Same assay, conditions: 50 µM; THP-1; incubation time: 4 h
row,Target,probe-labelled cysteine peptide fold change
1,GMPS_P49915_554_MCHNVNR (UniProt P49915),0.0835
2,GPATCH4_Q5T3I0_152_ILTDEMLLQACEGR (UniProt Q5T3I0),0.0804
3,GLRX_P35754_26_VVVFIKPTCPYCR (UniProt P35754),-3.44
4,GNAI1_P63096_66_IIHEAGYSEEECK (UniProt P63096),0.0109
5,GNS_P15586_518_LMMLQSCSGPTCR (UniProt P15586),-0.0586
6,GLOD4_Q9HC38_269_ATVQVVILADPDGHEICFVGDEAFR (UniProt Q9HC38),0.438
7,GNB2_P62879_25_ACGDSTLTQITAGLDPVGR (UniProt P62879),0.388
8,GLRX2_Q9NS18_153_LLPLVHQCYLK (UniProt Q9NS18),-0.0172
9,GOT2_P00505_212_IPEQSVLLLHACAHNPTGVDPRPEQWK (UniProt P00505),0.484
10,GMIP_Q9P107_521_ECEAFMVSGTECEECFLTCHK (UniProt Q9P107),0.297
11,GLG1_Q92896_639_CLIDLGK (UniProt Q92896),0.0807
12,GNAI2_P04899_140_RLWADHGVQACFGR (UniProt P04899),-0.253
13,GOLPH3_Q9H4A6_280_QLLDLDPEVECLK (UniProt Q9H4A6),0.0853
14,GNL3L_Q9NVN8_490_IGDLTGYCTNPNR (UniProt Q9NVN8),0.161
15,GNB1_P62873_148+149_ELAGHTGYLSCCR (UniProt P62873),-0.407
16,GNL3_Q9BVP2_131_KLYCQELK (UniProt Q9BVP2),-0.675
17,GPAA1_O43292_266_GGLLCTLQGK (UniProt O43292),-0.0244
18,GPT2_Q8TD30_265_VLCIINPGNPTGQVQSR (UniProt Q8TD30),-0.0557
19,GMPS_P49915_489_ACTTEEDQEK (UniProt P49915),-0.0471

row,Target,probe-labelled cysteine peptide fold change
1,GNPTG_Q9UJJ9_245_TPEENEPTQLEGGPDSLGFETLENCR (UniProt Q9UJJ9),0.185
2,GPS1_Q13098_175_RGHDDLGDHYLDCGDLSNALK (UniProt Q13098),-0.243
3,GNAI3_P08754_139_DGGVQACFSR (UniProt P08754),0.0749
4,GOPC_Q9HD26_408_LYLDELEGGGNPGASCK (UniProt Q9HD26),-0.268
5,GPATCH8_Q9UKJ3_508_VSETQMCESNSSK (UniProt Q9UKJ3),-0.154
6,GMPPA_Q96IJ6_335_LRESIVLHGATLQEHTCVLHSIVGWGSTVGR (UniProt Q96IJ6),-0.132
7,GLG1_Q92896_190_ECADEPVGK (UniProt Q92896),0.229
8,GMPPA_Q96IJ6_154_TQSLNYGCIVENPQTHEVLHYVEK (UniProt Q96IJ6),0.00148
9,GNB1_P62873_149_ELAGHTGYLSCCR (UniProt P62873),-0.208
10,GLCCI1_Q86VQ1_151_SPGSPVCR (UniProt Q86VQ1),0.295
11,GPD2_P43304_546_EYACTAVDMISR (UniProt P43304),0.188
12,GLB1_P16278_426_TTLPQDCSNPAPLSSPLNGVHDR (UniProt P16278),0.304
13,GNL1_P36915_517_LSLCFHPPGYSEQK (UniProt P36915),-0.0318
14,GLA_P06280_56_FMCNLDCQEEPDSCISEK (UniProt P06280),-0.0872
15,GLIPR1_P48060_192_GATCSACPNNDK (UniProt P48060),-0.0726
16,GNAI2_P04899_255_LFDSICNNK (UniProt P04899),-0.0265
17,GMPS_P49915_137_EDGVFNISVDNTCSLFR (UniProt P49915),0.487
18,GPHN_Q9NQX3_284_LSTASCPTPK (UniProt Q9NQX3),-0.288
19,GNB1_P62873_271_ADQELMTYSHDNIICGITSVSFSK (UniProt P62873),0.00135
